This passage reports cell number change and AC50 results from PubChem BioAssay AID2685 (National Center for Advancing Translational Sciences (NCATS), 2010).

The test can be described thus: qHTS Assay for Lipid Storage Modulators in Drosophila S3 Cells.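 As to cell number change: cells counted by Cell Tracker Red CMTPX staining in the red channel.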 The settings on record: BODIPY lipid droplet fluorescence, 18-24 h; for cell number change: measured here: cell count max response, cells fed with added oleic acid. The method, boiled down:
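Drosophila S3 cells got compounds at several concentrations plus oleic acid (400 uM solution). Laser-scanning cytometry with 488 nm excitation read lipid droplets at 500-530 nm and cells at 575-640 nm. Percent activity was relative to 20 uM Triacsin C.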

Where [1] appears, read: measured here: cell number channel AC50, cells fed with added oleic acid.
[2] abbreviates: measured here: lipid fluorescence (Fed channel) AC50, cells fed with added oleic acid.

The list shows a part of the results. These are further read-outs of the screen, such as a control signal, another cell line or another target. No call is given for them. Compounds called inactive in the main read-out are mostly missing here. The note in brackets gives the kind of curve behind each potency; many fits are weak.

Turning to `COc1ccc(-c2oc3ccc(-c4ccc(OC)nc4)cc3c2C#CC2(O)CCCCC2)cc1`, the cell number change is 34.6%. Further, under setting [1], the AC50 was 13 µM [rising, single point]. Moreover, the AC50 under setting [2] was 29.1 µM [rising, single point]. Turning to `O=C(Nc1c(Cl)ccc2nsnc12)c1ccco1`, the cell number change is 27.6%. The AC50 under setting [1] is 7.31 µM [falling, partial curve, poor fit]. As to `CCCC1C2C(=O)N(c3ccccc3)C(=O)C2ON1c1ccccc1` (stereo not drawn), the cell number change was -77.4%. The AC50 under setting [1] is 14.6 µM [falling, partial curve]. Besides, the AC50 under setting [2] is 0.206 µM [falling, full curve, poor fit]. For `Cc1c(Br)cccc1NC(=O)c1sccc1-n1cccc1`, the cell number change worked out at 44.4%. Further, the AC50 under setting [1] is 20.6 µM [rising, single point]. For the molecule `CN(C)c1nc(-c2cn(CCC#N)c3ccccc23)cs1`, the cell number change was 4.5%. In addition, the AC50 under setting [2] is 0.58 µM [rising, single point]. For `COc1ccc(/C=C/C(=O)OCC(=O)Nc2c(C)cccc2C)cc1`, the cell number change came out at 65.8%. The AC50 under setting [2] was 23.1 µM [rising, single point]. In the case of `CCOC(=O)C1C(c2cccc(Cl)c2Cl)NC(=O)NC1(O)C(F)(F)F` (stereo not drawn), under setting [2], the AC50 is 0.00461 µM [falling, full curve, poor fit]. In the case of `Nc1nc(-c2ccc(Br)cc2)cs1`, the cell number change was -0.431%. Further, the AC50 under setting [2] was 4.61 µM [rising, single point]. On to `Cc1cc(NC(=O)CSCC(=O)Nc2cc(C(F)(F)F)ccc2N2CCOCC2)no1`, for which the cell number change turned out to be 51.4%. Besides, the AC50 under setting [1] is 23.1 µM [rising, partial curve]. Also, the AC50 under setting [2] is 20.6 µM [rising, partial curve]. Consider `COc1ccccc1NC(=O)Cc1nnc(SCC(=O)c2ccccc2)n1C`, for which the cell number change stood at 7.56%. Besides, the AC50 under setting [2] was 9.2 µM [rising, partial curve].

In the case of `CC(C)CSc1nnc2c(n1)[nH]c1ccccc12`, the cell number change came to 13%. In addition, under setting [2], the AC50 was 5.8 µM [rising, single point]. Turning to `CC(=O)c1cccc(NC(=O)COc2ccc3oc(=O)cc(C)c3c2)c1`, the cell number change was -9.3%. Also, under setting [2], the AC50 was 10.3 µM [falling, partial curve, poor fit].

Consider `COc1ccc(Cl)cc1NC(=O)C(OC)c1ccccc1` (stereo not drawn), for which the cell number change was -52.9%. The AC50 under setting [1] was 20.6 µM [falling, single point].

Regarding `C=C(C)COc1ccc(-c2n[nH]c(C)c2-c2ccccc2OC)c(O)c1`, the cell number change is -78.8%. Moreover, under setting [1], the AC50 was 23.1 µM [falling, partial curve]. Also, the AC50 under setting [2] is 29.1 µM [falling, single point]. With `CCN1CCCC1CNCc1cccc(OC)c1OCc1ccccc1` (stereo not drawn), the cell number change was -16.7%. Under setting [1], the half-maximal activity concentration (AC50) was 1.64 µM [rising, partial curve]. In addition, the AC50 under setting [2] was 16.4 µM [rising, single point]. In the case of `O=C(NNc1nc(N2CCOCC2)nc(N2CCOCC2)n1)Nc1ccc(Cl)cc1`, the AC50 under setting [1] was 2.31 µM [rising, single point]. On to `COc1ccc(OC)c(C(=O)c2ccc(Cl)cc2)c1`, for which the cell number change was found to be 3.57%. Also, the AC50 under setting [2] was 0.092 µM [rising, single point]. Consider `CCCNC(=O)Nc1cc(S(=O)(=O)CC)ccc1O`, for which the cell number change amounted to 40.5%. For the same molecule, the AC50 under setting [1] is 18.4 µM [rising, single point]. Turning to `CCOc1ccc(S(=O)(=O)N2CCC(C(=O)NCc3cccnc3)CC2)cc1C`, the cell number change was 16.4%. The AC50 under setting [2] is 29.1 µM [rising, single point]. On to `CC1(C)CC(NC(=O)C2CCC(=O)N(Cc3ccccc3F)C2)CC(C)(C)C1` (stereo not drawn), for which the cell number change was -18.2%. Also, the AC50 under setting [2] was 0.58 µM [rising, single point].

As for `O=C(Nc1ccccc1F)C1CCN(C(=O)NCc2ccccc2)CC1`, the cell number change worked out at 31.2%. For the same molecule, the AC50 under setting [1] is 20.6 µM [rising, partial curve].

For the molecule `Cc1cc(C)cc(NC(=O)CSc2nc3c(c(=O)n2C)SC(C)C3)c1` (stereo not drawn), the AC50 is 1.84 µM [rising, partial curve] under setting [1] and 2.06 µM [rising, partial curve] under setting [2]. For `S=C1NC2(CCCC2)Nc2ccccc21`, the cell number change is -23.9%.

For the molecule `Cc1cccc(C2Nc3ccccc3C(=O)N2NC(=O)c2ccc([N+](=O)[O-])cc2)n1` (stereo not drawn), the cell number change turned out to be 32.7%. In addition, the AC50 under setting [1] was 32.6 µM [rising, single point]. The AC50 under setting [2] is 9.2 µM [rising, partial curve, poor fit]. As to `Cc1nc(N/N=C/c2ccc(O)cc2O)cc(N2CCOCC2)n1`, the cell number change is -10.6%. Same read-out and setting: as for `O=C(NCCCNC(=O)c1ccco1)c1ccc(Cl)c(Cl)c1`, the figure is 11.2%. With `Cc1csc(NC(=O)Cc2c[nH]c3ccccc23)n1`, the cell number change was 31.6%. For the same molecule, the AC50 under setting [1] is 29.1 µM [rising, single point]. In addition, the AC50 under setting [2] was 23.1 µM [rising, partial curve]. As to `Cc1ccc(S(=O)(=O)N(CC(=O)N/N=C/c2cccc(C)c2)c2cccc3cccnc23)cc1`, the cell number change was -16.8%. Under setting [2], the AC50 is 0.58 µM [rising, single point]. Take `CCOC(=O)CSc1n[nH]c(NC(=O)c2cccc(C(F)(F)F)c2)n1`: the cell number change worked out at 17.8%. In addition, the AC50 under setting [1] is 0.411 µM [rising, full curve, poor fit]. Turning to `Clc1ccccc1-c1nc(/C=N/N2CCOCC2)c2ccccn12`, the cell number change was 74.7%. Besides, the AC50 under setting [1] was 16.4 µM [rising, single point]. In addition, the half-maximal activity concentration (AC50) under setting [2] is 25.9 µM [rising, partial curve]. Consider `CCNC(=O)c1ccccc1SCC(=O)Nc1ccc(F)cc1`, for which the cell number change worked out at 40.4%. The AC50 under setting [1] was 10.3 µM [rising, single point]. With `CCC(=O)N(c1nnc(SCC(=O)Nc2ccccc2Cl)s1)C1CC1`, the cell number change is -18.8%. The AC50 under setting [1] is 0.461 µM [falling, full curve, poor fit]. For the same molecule, the AC50 under setting [2] was 0.116 µM [falling, full curve]. `Cc1sc(NC(=O)CN(C)C2CCCCC2)nc1-c1ccc2c(c1)CCN2S(=O)(=O)c1ccccc1`: the cell number change was -2.1%. `COc1ccc(S(=O)(=O)NCC(c2cccnc2)N2CCN(Cc3ccccc3)CC2)cc1` (stereo not drawn): the cell number change is -8.67%. Also, the AC50 under setting [2] was 0.092 µM [falling, full curve]. Turning to `NCCCNC(=O)c1ccc(/C=N/O)nc1`, the cell number change was -1.19%. The AC50 under setting [2] is 0.651 µM [falling, full curve, poor fit]. `O=C(CSc1nc2ccccc2o1)Nc1ccccc1N1CCOCC1`: the cell number change was 57.7%. For the same molecule, under setting [1], the AC50 was 0.366 µM [rising, full curve]. Besides, the AC50 under setting [2] was 0.146 µM [rising, full curve, poor fit]. In the case of `O=c1oc(-c2ccccc2NS(=O)(=O)c2ccc(Cl)cc2)nc2ccccc12`, the cell number change is -0.397%. Under setting [1], the AC50 is 0.58 µM [falling, single point]. Also, the AC50 under setting [2] is 0.517 µM [falling, single point].

Take `Cc1cc(N2CCOCC2)ccc1/C=C1\NC(=O)N(CC(=O)Nc2ccccc2C)C1=O`: the cell number change amounted to 18.1%.

As for `CC(Oc1cccc(Cl)c1)C(=O)Nc1cc(=O)n(C)c(=O)n1C` (stereo not drawn), the AC50 runs as follows: under setting [1], 0.092 µM [rising, full curve]; under setting [2], 0.092 µM [rising, full curve, poor fit]. For the molecule `COc1ccccc1NC(=S)N/N=C/c1cccc(C)c1`, the cell number change was determined as 14.8%. In addition, the AC50 under setting [2] was 1.16 µM [rising, partial curve, poor fit]. On to `CCOc1ccccc1NC(=O)C(NC(=O)C1CCC(C)CC1)C(C)C` (stereo not drawn), for which the cell number change was -2.18%.

On to `N#Cc1ccc(CSCC(=O)O)cc1`, for which the cell number change was -1.23%. Under setting [2], the AC50 is 2.06 µM [falling, partial curve]. For the molecule `Cc1ccc(S(=O)(=O)N2CCN(C(=O)CSc3nncs3)CC2)cc1`, the cell number change is -13%. The AC50 under setting [2] is 0.0517 µM [falling, full curve, poor fit]. With `Cc1nn(C(=O)c2nn(C)cc2[N+](=O)[O-])c(C)c1Cl`, the cell number change was -0.79%. Further, under setting [1], the AC50 was 0.291 µM [rising, partial curve, poor fit].

In the case of `COc1ccc(Cl)cc1NC(=O)CN(C)C(=O)Cn1c(=O)oc2ccccc21`, the cell number change was -4.98%. Besides, the AC50 under setting [2] is 0.326 µM [falling, full curve, poor fit]. With `CN(C)c1ccc(NC(=O)CN2C3CCCC2CC(NC(=O)c2ccccc2)C3)cc1` (stereo not drawn), the cell number change is 12.6%. Further, the AC50 under setting [2] was 0.116 µM [falling, partial curve, poor fit].

On to `Oc1ccc(C=Nc2ccccc2-c2nc3ccccc3[nH]2)c(O)c1`, for which the cell number change was -6.25%. Under setting [2], the AC50 is 4.61 µM [rising, single point]. Take `O=C(CCS(=O)(=O)c1ccc(Cl)cc1)N1CCN(c2ccc(F)cc2)CC1`: the cell number change came out at 4.2%. For the same molecule, the AC50 under setting [2] is 25.9 µM [falling, single point].

Consider `CCOC(=O)c1ccccc1NC(=S)N1CC(C)CC(C)C1` (stereo not drawn), for which the cell number change stood at 14.2%. Also, the AC50 under setting [2] is 7.31 µM [rising, partial curve].

For the molecule `Cc1coc(C)c1C(=O)Nc1ccc2ccccc2c1`, the cell number change is -8.29%. For the molecule `Cc1ccc(S(=O)(=O)CCC(=O)OCC(=O)N2CC(=O)Nc3ccccc32)cc1`, the cell number change was -13%. Regarding `O=C(CN1C(=O)NC2(CCCC2)C1=O)N1CCN(c2cccc(C(F)(F)F)c2)CC1`, the cell number change was -18.8%.

Turning to `CCOc1ccccc1NS(=O)(=O)c1ccc2c(c1)N(C)CCO2`, under setting [2], the AC50 is 18.4 µM [falling, single point]. Consider `CC(O)CNc1nc2c(c(=O)n(C)c(=O)n2C)n1CCc1ccccc1` (stereo not drawn), for which the cell number change was 7.38%. Further, the AC50 under setting [2] was 0.461 µM [falling, partial curve, poor fit]. Consider `CCSc1ccc([C@@H]2[C@H]3C(=O)N(C)C(=O)[C@H]3[C@]3(C(=O)OC)CCCCN23)cc1OC`, for which the cell number change stood at 20.4%.

On to `CC1=C(C(=O)Nc2ccccc2C)C(c2ccccc2)NC(=O)N1` (stereo not drawn), for which the cell number change came out at 8.21%. Moreover, the AC50 under setting [2] was 0.58 µM [rising, single point]. Take `COc1cc(/C=C/c2cc(C(=O)O)c3ccccc3n2)ccc1OC(F)F`: the cell number change was 34.4%. Besides, under setting [1], the AC50 is 13 µM [rising, partial curve, poor fit]. Consider `CCCOc1ccc(/C=N/Nc2ccccn2)cc1OC`, for which the cell number change worked out at 1.88%. Under setting [1], the AC50 was 6.51 µM [falling, single point]. With `C[C@H](NC(=O)c1ncn(Cc2ccccc2)c1C(=O)N[C@@H](C)c1ccccc1)c1ccccc1`, the cell number change is -0.712%.

`Fc1ccccc1N1CCN(CC2CCCCC2)CC1`: the cell number change came to 17.5%. Moreover, the AC50 under setting [2] was 29.1 µM [rising, partial curve, poor fit]. Take `CC1CCN(CCNC(=O)C2CCN(S(=O)(=O)c3cccc4nsnc34)CC2)CC1`: the cell number change is -16.3%.
